In PMC3865339:
These are yes or no findings as the source states them, for the method shown. In cells and extracts the contact can be indirect. Some binding calls cover weakened binding; strength is not graded here.

By UniProt entry, the sequences of proteins in these tests, tags left out.
UniProt Q99497: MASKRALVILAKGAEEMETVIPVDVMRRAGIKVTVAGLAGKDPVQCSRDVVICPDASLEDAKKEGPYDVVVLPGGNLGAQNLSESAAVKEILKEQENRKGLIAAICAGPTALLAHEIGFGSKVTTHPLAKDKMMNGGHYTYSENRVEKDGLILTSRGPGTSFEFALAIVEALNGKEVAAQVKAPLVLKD
UniProt Q92766: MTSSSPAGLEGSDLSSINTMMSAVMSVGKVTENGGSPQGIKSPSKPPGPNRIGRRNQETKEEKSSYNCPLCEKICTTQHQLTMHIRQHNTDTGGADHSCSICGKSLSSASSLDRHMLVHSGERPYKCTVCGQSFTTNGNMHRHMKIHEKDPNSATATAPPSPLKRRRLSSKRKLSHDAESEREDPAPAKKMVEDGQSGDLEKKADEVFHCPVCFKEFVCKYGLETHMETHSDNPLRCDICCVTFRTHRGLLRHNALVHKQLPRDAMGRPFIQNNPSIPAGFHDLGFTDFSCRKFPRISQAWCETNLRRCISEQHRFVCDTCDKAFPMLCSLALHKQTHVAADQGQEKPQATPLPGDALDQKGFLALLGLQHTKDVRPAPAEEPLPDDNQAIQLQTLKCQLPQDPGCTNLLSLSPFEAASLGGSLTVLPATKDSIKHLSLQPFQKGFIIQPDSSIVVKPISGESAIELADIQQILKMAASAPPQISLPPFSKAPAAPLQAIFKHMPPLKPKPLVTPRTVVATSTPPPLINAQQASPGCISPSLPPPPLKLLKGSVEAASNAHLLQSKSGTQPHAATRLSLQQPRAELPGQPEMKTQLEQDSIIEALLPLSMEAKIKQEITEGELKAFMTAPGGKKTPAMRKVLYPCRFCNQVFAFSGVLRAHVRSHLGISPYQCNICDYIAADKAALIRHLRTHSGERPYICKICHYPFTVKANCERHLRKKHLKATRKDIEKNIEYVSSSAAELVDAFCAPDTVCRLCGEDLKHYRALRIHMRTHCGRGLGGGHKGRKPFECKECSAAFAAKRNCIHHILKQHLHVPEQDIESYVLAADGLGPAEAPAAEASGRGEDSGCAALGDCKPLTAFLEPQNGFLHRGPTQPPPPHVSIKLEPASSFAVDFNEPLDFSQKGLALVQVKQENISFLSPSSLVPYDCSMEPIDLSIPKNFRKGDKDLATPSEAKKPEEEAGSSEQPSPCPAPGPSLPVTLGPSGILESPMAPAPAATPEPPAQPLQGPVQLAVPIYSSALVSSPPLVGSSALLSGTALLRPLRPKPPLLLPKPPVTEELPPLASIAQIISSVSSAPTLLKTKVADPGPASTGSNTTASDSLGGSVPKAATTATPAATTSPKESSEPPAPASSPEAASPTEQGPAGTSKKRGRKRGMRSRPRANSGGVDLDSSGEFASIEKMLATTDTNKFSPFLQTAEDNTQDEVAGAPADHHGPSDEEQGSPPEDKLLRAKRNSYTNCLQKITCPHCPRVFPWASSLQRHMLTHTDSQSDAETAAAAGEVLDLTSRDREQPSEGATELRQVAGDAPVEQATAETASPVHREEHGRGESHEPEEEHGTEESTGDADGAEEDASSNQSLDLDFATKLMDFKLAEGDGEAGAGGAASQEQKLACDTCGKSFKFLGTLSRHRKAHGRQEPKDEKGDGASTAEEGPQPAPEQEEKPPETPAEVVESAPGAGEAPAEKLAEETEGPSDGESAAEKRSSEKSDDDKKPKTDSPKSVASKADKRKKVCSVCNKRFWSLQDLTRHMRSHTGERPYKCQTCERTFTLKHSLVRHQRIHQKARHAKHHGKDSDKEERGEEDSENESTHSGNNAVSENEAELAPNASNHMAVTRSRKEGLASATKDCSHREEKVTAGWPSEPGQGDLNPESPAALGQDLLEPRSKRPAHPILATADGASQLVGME
UniProt P08047: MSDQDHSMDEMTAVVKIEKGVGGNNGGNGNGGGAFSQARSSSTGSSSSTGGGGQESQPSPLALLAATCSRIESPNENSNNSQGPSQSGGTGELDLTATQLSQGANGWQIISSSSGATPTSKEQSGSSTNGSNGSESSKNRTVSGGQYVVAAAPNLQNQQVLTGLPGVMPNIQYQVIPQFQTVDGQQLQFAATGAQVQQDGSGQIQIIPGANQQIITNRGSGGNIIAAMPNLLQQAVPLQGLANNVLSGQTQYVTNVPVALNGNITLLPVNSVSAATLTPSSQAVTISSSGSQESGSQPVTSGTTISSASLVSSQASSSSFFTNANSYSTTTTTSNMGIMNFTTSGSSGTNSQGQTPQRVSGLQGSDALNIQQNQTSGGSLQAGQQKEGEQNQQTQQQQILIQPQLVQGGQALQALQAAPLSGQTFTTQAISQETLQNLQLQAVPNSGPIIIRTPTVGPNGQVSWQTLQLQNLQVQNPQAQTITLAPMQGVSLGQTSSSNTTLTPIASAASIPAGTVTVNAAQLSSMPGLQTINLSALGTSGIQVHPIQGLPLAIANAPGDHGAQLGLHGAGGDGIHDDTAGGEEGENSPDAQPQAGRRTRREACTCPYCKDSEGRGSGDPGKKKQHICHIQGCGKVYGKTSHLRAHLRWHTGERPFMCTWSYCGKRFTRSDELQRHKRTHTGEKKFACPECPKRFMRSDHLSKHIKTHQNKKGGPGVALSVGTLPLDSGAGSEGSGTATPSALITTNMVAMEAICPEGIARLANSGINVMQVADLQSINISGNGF

How the values were obtained:
Test in all cases: co-IP; endogenous proteins of SH-SY5Y nuclear extracts immunoprecipitated with anti-RREB1, anti-DJ-1 or anti-Sp1 antibody or normal IgG; precipitates analysed by Western blotting with anti-RREB1, anti-Sp1 or anti-DJ-1 antibody; n = 3
[1] = molecular target: DJ-1 (human (endogenous in SH-SY5Y)) (UniProt Q99497)
[2] = molecular target: Ras-responsive element-binding protein 1 (RREB1) (human (endogenous in SH-SY5Y)) (UniProt Q92766)
[3] = molecular target: Sp1 (human (endogenous in SH-SY5Y)) (UniProt P08047)

binding [1]	binding [2]	binding [3]	Substance
no binding	no binding		Sp1 (from UniProt P08047 1-785)
	binds	no binding	DJ-1 (from UniProt Q99497 1-189)
